Test results taken from the supplement of paper PMC4604168 (melanoma cell lines).
This is one part of the list. Many values rest on one well or one pass, so single values are uncertain.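 Cells were imaged in 1,536-well plates, and nuclei stained with an antibody against cleaved PARP were counted against all DNA-stained nuclei to give the apoptosis fraction. Screening doses were chosen to leave most cells alive, and resting and induced cleaved-PARP levels differ strongly between cell lines.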

tested on: IST-MEL1; assay: cleaved PARP positive nuclei fraction relative to DMSO control; melanoma cells; higher = more apoptosis; details: library dose: low library concentration; 72 h

Compound | cleaved PARP positive nuclei fraction
N#CC[C@H](C1CCCC1)n1cc(-c2ncnc3[nH]ccc23)cn1 [ruxolitinib] + O=S(=O)(c1ccccc1)N(CC(F)(F)F)c1ccc(C(O)(C(F)(F)F)C(F)(F)F)cc1 [T0901317] (first compound 1 µM, partner dose 1.4 µM) | 122%
Cc1cn(-c2cc(NC(=O)c3ccc(C)c(Nc4nccc(-c5cccnc5)n4)c3)cc(C(F)(F)F)c2)cn1 [nilotinib] + COC(=O)c1sccc1S(=O)(=O)Nc1ccc(Nc2ccccc2)cc1OC [GSK0660] (first compound 0.2 µM, partner dose 1 µM) | 451%
Cc1ccc(Nc2nccc(N(C)c3ccc4c(C)n(C)nc4c3)n2)cc1S(N)(=O)=O [Pazopanib] + O=C(O)C(=O)Nc1sc2c(c1C(=O)O)CCNC2 [TCS401] (first compound 0.4 µM, partner dose 1.66667 µM) | 80.4%
N#CC[C@H](C1CCCC1)n1cc(-c2ncnc3[nH]ccc23)cn1 [ruxolitinib] + COc1ccc(COc2ccc(Cc3cnc(N)nc3N)cc2OC)cc1 [GW2580] (first compound 1 µM, partner dose 1 µM) | 81.4%
Cc1ccc(Nc2nccc(N(C)c3ccc4c(C)n(C)nc4c3)n2)cc1S(N)(=O)=O [Pazopanib] + CCc1ccc(CCOc2ccc(CC3SC(=O)NC3=O)cc2)nc1 [pioglitazone] (first compound 0.4 µM, partner dose 2 µM) | 83.2%
Cc1cc(Nc2cc(N3CCN(C)CC3)nc(Sc3ccc(NC(=O)C4CC4)cc3)n2)n[nH]1 [Tozasertib] + c1cc(-c2cnn3cc(-c4ccc(OCCN5CCCCC5)cc4)cnc23)ccn1 [Dorsomorphin] (first compound 0.006 µM, partner dose 0.4 µM) | 228%
Cc1ccc(Nc2nccc(N(C)c3ccc4c(C)n(C)nc4c3)n2)cc1S(N)(=O)=O [Pazopanib] + COC(=O)c1sccc1S(=O)(=O)Nc1ccc(Nc2ccccc2)cc1OC [GSK0660] (first compound 0.4 µM, partner dose 1 µM) | 127%
COc1cc([C@@H]2c3cc4c(cc3[C@@H](O[C@@H]3O[C@@H]5CO[C@@H](C)O[C@H]5[C@H](O)[C@H]3O)[C@H]3COC(=O)[C@H]23)OCO4)cc(OC)c1O [etoposide] + O=S(=O)(c1ccccc1)N(CC(F)(F)F)c1ccc(C(O)(C(F)(F)F)C(F)(F)F)cc1 [T0901317] (first compound 0.02 µM, partner dose 1.4 µM) | 97.3%
O=c1[nH]nc(Sc2ncc([N+](=O)[O-])s2)n1-c1ccc2c(c1)OCCO2 + c1cc(-c2cnn3cc(-c4ccc(OCCN5CCCCC5)cc4)cnc23)ccn1 [Dorsomorphin] (first compound 0.2 µM, partner dose 0.4 µM) | 152%
Cc1cc(Nc2cc(N3CCN(C)CC3)nc(Sc3ccc(NC(=O)C4CC4)cc3)n2)n[nH]1 [Tozasertib] + Oc1cc(-c2nc(-c3ccccc3)[nH]c2-c2ccncc2)ccc1Cl [L779450] (first compound 0.006 µM, partner dose 0.2 µM) | 58.4%
Cc1cc(Nc2cc(N3CCN(C)CC3)nc(Sc3ccc(NC(=O)C4CC4)cc3)n2)n[nH]1 [Tozasertib] + Cn1cc(/C=C2\C(=O)Nc3cccnc32)c2ccccc21 [GW441756] (first compound 0.006 µM, partner dose 0.4 µM) | 190%
Cc1cn(-c2cc(NC(=O)c3ccc(C)c(Nc4nccc(-c5cccnc5)n4)c3)cc(C(F)(F)F)c2)cn1 [nilotinib] + O=C(O)C(=O)Nc1sc2c(c1C(=O)O)CCNC2 [TCS401] (first compound 0.2 µM, partner dose 1.66667 µM) | 140%
Cc1cn(-c2cc(NC(=O)c3ccc(C)c(Nc4nccc(-c5cccnc5)n4)c3)cc(C(F)(F)F)c2)cn1 [nilotinib] + O=S(=O)(c1ccccc1)N(CC(F)(F)F)c1ccc(C(O)(C(F)(F)F)C(F)(F)F)cc1 [T0901317] (first compound 0.2 µM, partner dose 1.4 µM) | 208%
COc1cc([C@@H]2c3cc4c(cc3[C@@H](O[C@@H]3O[C@@H]5CO[C@@H](C)O[C@H]5[C@H](O)[C@H]3O)[C@H]3COC(=O)[C@H]23)OCO4)cc(OC)c1O [etoposide] + Cc1cc([N+](=O)[O-])ccc1NS(=O)(=O)c1cc(Cl)ccc1Cl [FH535] (first compound 0.02 µM, partner dose 1 µM) | 118%

Part of the list above, as comma-separated lines.
Compound,cleaved PARP positive nuclei fraction
"O=c1[nH]nc(Sc2ncc([N+](=O)[O-])s2)n1-c1ccc2c(c1)OCCO2 + c1cc(-c2cnn3cc(-c4ccc(OCCN5CCCCC5)cc4)cnc23)ccn1 [Dorsomorphin] (first compound 0.2 µM, partner dose 0.4 µM)",152%
"Cc1cc(Nc2cc(N3CCN(C)CC3)nc(Sc3ccc(NC(=O)C4CC4)cc3)n2)n[nH]1 [Tozasertib] + Oc1cc(-c2nc(-c3ccccc3)[nH]c2-c2ccncc2)ccc1Cl [L779450] (first compound 0.006 µM, partner dose 0.2 µM)",58.4%
"Cc1cn(-c2cc(NC(=O)c3ccc(C)c(Nc4nccc(-c5cccnc5)n4)c3)cc(C(F)(F)F)c2)cn1 [nilotinib] + O=C(O)C(=O)Nc1sc2c(c1C(=O)O)CCNC2 [TCS401] (first compound 0.2 µM, partner dose 1.66667 µM)",140%
